The assay relates to P388 leukemia ip, CD2F1 mice, survival T/C. The assay is described as follows: NCI In Vivo Anticancer Drug Screen. Data for tumor model P388 Leukemia (intraperitoneal) in CD2F1 (CDF1) mice. The settings on record: T/C endpoint: median survival time, higher T/C = longer survival.
[1] abbreviates: dose: 2.0 mg/kg/injection, schedule: Q04DX003 (ip), vehicle: saline.
Where [2] appears, read: dose: 4.0 mg/kg/injection, schedule: Q04DX003 (ip), vehicle: saline.
[3] abbreviates: dose: 6.25 mg/kg/injection, schedule: Q01DX009 (ip), vehicle: saline.
The mark [4] stands for this setting: dose: 12.5 mg/kg/injection, schedule: Q01DX009 (ip), vehicle: saline.
Where [5] appears, read: dose: 12.5 mg/kg/injection, schedule: Q04DX003 (ip), vehicle: saline with Tween-80.
The mark [6] stands for this setting: dose: 25.0 mg/kg/injection, schedule: Q04DX003 (ip), vehicle: saline with Tween-80.
Setting [7] is: dose: 6.25 mg/kg/injection, schedule: Q01DX009 (ip), vehicle: Klucel (hydroxypropylcellulose) (HPC).
The mark [8] stands for this setting: dose: 12.5 mg/kg/injection, schedule: Q01DX009 (ip), vehicle: Klucel (hydroxypropylcellulose) (HPC).
Where [9] appears, read: dose: 25.0 mg/kg/injection, schedule: Q01DX009 (ip), vehicle: Klucel (hydroxypropylcellulose) (HPC).
The mark [10] stands for this setting: dose: 50.0 mg/kg/injection, schedule: Q01DX009 (ip), vehicle: Klucel (hydroxypropylcellulose) (HPC).

For 7 compounds, T/C results are on record in PubChem BioAssay AID330 (DTP/NCI, 2004).

The list shows only some results of the screen, not a fair sample: its compounds were picked by chemical class. Not every dose and run of a compound is shown. T/C is the treated group as % of the vehicle group. Where survival is the endpoint, this PubChem deposit counts one and a half times the control or more as active, and values a quarter to a half above the control carry no call in these data; other NCI protocols may use other cut-offs. Some entries show no survivor count and are marked so; the dose need not have been tolerated. Schedules are NCI's codes, read here as Q, the interval in days (D) or hours (H), X, the number of doses. Brackets with × stand for listed records that agree. Some doses were run more than once; the values are given in rising order.

On to `C[N+](CCCl)(CCCl)Cc1ccc([N+](=O)[O-])cc1`, for which the T/C (dose: 1.56 mg/kg/injection, schedule: Q01DX009 (ip), vehicle: saline) was 116 % of control [survivor count not shown]; the T/C under setting [1] is 127 % of control [survivor count not shown]; the T/C (dose: 3.13 mg/kg/injection, schedule: Q01DX009 (ip), vehicle: saline with Tween-80) is 120 % of control [survivor count not shown]; the T/C (dose: 3.13 mg/kg/injection, schedule: Q01DX009 (ip), vehicle: saline) is 126 % of control [survivor count not shown]; the T/C under setting [2] was 136 % of control [survivor count not shown]; the T/C (dose: 6.25 mg/kg/injection, schedule: Q01DX009 (ip), vehicle: saline with Tween-80) is 120 % of control [survivor count not shown]. For the same compound, the T/C by setting is: under setting [3], 121 [survivor count not shown], 145 [survivor count not shown], 148 % of control [survivor count not shown]; (dose: 8.0 mg/kg/injection, schedule: Q04DX003 (ip), vehicle: saline with Tween-80) 136 % of control [survivor count not shown]; (dose: 8.0 mg/kg/injection, schedule: Q04DX003 (ip), vehicle: saline) 163 % of control [survivor count not shown]; (dose: 12.0 mg/kg/injection, schedule: Q04DX003 (ip), vehicle: saline with Tween-80) 127 % of control [survivor count not shown]; (dose: 12.5 mg/kg/injection, schedule: Q01DX009 (ip), vehicle: saline with Tween-80) 91 % of control [survivor count not shown]; under setting [4], 140 [survivor count not shown] and 167 % of control [survivor count not shown]. For the same compound, the T/C was 109 % of control [survivor count not shown] under setting [5]; 140 % of control [survivor count not shown] (dose: 18.0 mg/kg/injection, schedule: Q04DX003 (ip), vehicle: saline with Tween-80); 86 % of control [survivor count not shown] under setting [6].

With `COC(=O)CCc1ccc(CN(CCCl)CCCl)cc1`, the T/C by setting is: (dose: 0.37 mg/kg/injection, schedule: Q01DX009 (ip), vehicle: saline) 116 % of control [survivor count not shown]; (dose: 0.75 mg/kg/injection, schedule: Q01DX009 (ip), vehicle: saline) 127 % of control [survivor count not shown]; (dose: 1.0 mg/kg/injection, schedule: Q01DX009 (ip), vehicle: saline) 150 % of control [survivor count not shown]; (dose: 1.0 mg/kg/injection, schedule: Q04DX003 (ip), vehicle: saline) 130 % of control [survivor count not shown]; (dose: 1.5 mg/kg/injection, schedule: Q01DX009 (ip), vehicle: saline) 150 % of control [survivor count not shown]; (dose: 2.0 mg/kg/injection, schedule: Q01DX009 (ip), vehicle: saline) 181 % of control [survivor count not shown]. The T/C by setting is: under setting [1], 155 % of control [survivor count not shown]; (dose: 3.0 mg/kg/injection, schedule: Q01DX009 (ip), vehicle: saline) 178 % of control [survivor count not shown]; under setting [2], 180 % of control [survivor count not shown]; (dose: 6.0 mg/kg/injection, schedule: Q01DX009 (ip), vehicle: saline) 91 % of control [survivor count not shown].

For `COc1ccc(N(CCCl)CCCl)cc1`, the T/C is 150 % of control [survivor count not shown] under setting [7]; 163 % of control [survivor count not shown] under setting [8]; 151 [survivor count not shown] and 204 % of control [survivor count not shown] under setting [9]; 94 [survivor count not shown] and 119 % of control [survivor count not shown] under setting [10].

Turning to `NN(CCCl)CCCl`, the T/C is, setting by setting: (dose: 1.25 mg/kg/injection, schedule: Q04DX003 (ip), vehicle: saline) 120 % of control [survivor count not shown]; (dose: 2.5 mg/kg/injection, schedule: Q04DX003 (ip), vehicle: saline) 130 % of control [survivor count not shown]; (dose: 5.0 mg/kg/injection, schedule: Q04DX003 (ip), vehicle: saline) 170 % of control [survivor count not shown]; under setting [3], 231 % of control [survivor count not shown]; (dose: 6.25 mg/kg/injection, schedule: Q04DX003 (ip), vehicle: saline) 177 % of control [survivor count not shown]; under setting [4], 95 % of control [survivor count not shown]. Also, the T/C is, setting by setting: (dose: 12.5 mg/kg/injection, schedule: Q04DX003 (ip), vehicle: saline) 200 % of control [survivor count not shown]; (dose: 25.0 mg/kg/injection, schedule: Q04DX003 (ip), vehicle: saline) 118 % of control [survivor count not shown].

Consider `COc1cccc(N(CCCl)CCCl)c1OC`, for which the T/C is, setting by setting: (dose: 1.5 mg/kg/injection, schedule: Q04DX003 (ip), vehicle: saline with Tween-80) 109 % of control [survivor count not shown]; (dose: 3.0 mg/kg/injection, schedule: Q04DX003 (ip), vehicle: saline with Tween-80) 109 % of control [survivor count not shown]; (dose: 6.0 mg/kg/injection, schedule: Q04DX003 (ip), vehicle: saline with Tween-80) 118 % of control [survivor count not shown]; (dose: 6.25 mg/kg/injection, schedule: Q04DX003 (ip), vehicle: saline with Tween-80) 128 % of control [survivor count not shown]; under setting [5], 127 [survivor count not shown] and 138 % of control [survivor count not shown]; (dose: 18.75 mg/kg/injection, schedule: Q01DX009 (ip), vehicle: saline with Tween-80) 160 % of control [survivor count not shown]. The T/C under setting [6] is 136 % of control [survivor count not shown]; the T/C (dose: 33.0 mg/kg/injection, schedule: Q04DX003 (ip), vehicle: saline with Tween-80) is 122 % of control [survivor count not shown]; the T/C (dose: 37.5 mg/kg/injection, schedule: Q01DX009 (ip), vehicle: saline with Tween-80) was 160 % of control [survivor count not shown]; the T/C (dose: 50.0 mg/kg/injection, schedule: Q04DX003 (ip), vehicle: saline with Tween-80) is 136 [survivor count not shown], 157 [survivor count not shown], 159 % of control [survivor count not shown]; the T/C (dose: 75.0 mg/kg/injection, schedule: Q01DX009 (ip), vehicle: saline with Tween-80) is 210 % of control [survivor count not shown]; the T/C (dose: 75.0 mg/kg/injection, schedule: Q04DX003 (ip), vehicle: saline with Tween-80) was 181 % of control [survivor count not shown]. Further, the T/C is 143 [survivor count not shown] and 176 % of control [survivor count not shown] (dose: 100.0 mg/kg/injection, schedule: Q04DX003 (ip), vehicle: saline with Tween-80); 160 % of control [survivor count not shown] (dose: 200.0 mg/kg/injection, schedule: Q04DX003 (ip), vehicle: saline with Tween-80).

Regarding `O=C(CCl)Nc1ccc(N(CCCl)CCCl)cc1`, the T/C is, setting by setting: under setting [7], 146 [survivor count not shown] and 160 % of control [survivor count not shown]; under setting [8], 161 [survivor count not shown] and 164 % of control [survivor count not shown]; under setting [9], 162 [survivor count not shown] and 169 % of control [survivor count not shown]; under setting [10], 108 [survivor count not shown] and 131 % of control [survivor count not shown].

In the case of `O=C(Cl)c1cccc(N(CCCl)CCCl)c1`, the T/C was 162 % of control [survivor count not shown] (dose: 25.0 mg/kg/injection, schedule: Q01DX009 (ip), vehicle: saline with Tween-80); 180 % of control [survivor count not shown] (2×) (dose: 50.0 mg/kg/injection, schedule: Q01DX009 (ip), vehicle: saline with Tween-80); 199 [survivor count not shown] and 207 % of control [survivor count not shown] (dose: 100.0 mg/kg/injection, schedule: Q01DX009 (ip), vehicle: saline with Tween-80).
